Measured values taken from doi:10.1101/2023.12.15.571360.

The chains behind the UniProt entries cited, without tags or fusion partners.
UniProt P63104: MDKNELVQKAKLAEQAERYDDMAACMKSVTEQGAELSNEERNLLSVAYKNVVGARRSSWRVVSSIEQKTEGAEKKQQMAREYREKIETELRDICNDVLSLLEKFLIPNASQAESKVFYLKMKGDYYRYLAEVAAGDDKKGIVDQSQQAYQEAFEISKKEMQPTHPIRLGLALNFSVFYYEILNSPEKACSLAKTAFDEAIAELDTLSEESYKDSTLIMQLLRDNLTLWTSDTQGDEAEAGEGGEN
UniProt Q9R0N7: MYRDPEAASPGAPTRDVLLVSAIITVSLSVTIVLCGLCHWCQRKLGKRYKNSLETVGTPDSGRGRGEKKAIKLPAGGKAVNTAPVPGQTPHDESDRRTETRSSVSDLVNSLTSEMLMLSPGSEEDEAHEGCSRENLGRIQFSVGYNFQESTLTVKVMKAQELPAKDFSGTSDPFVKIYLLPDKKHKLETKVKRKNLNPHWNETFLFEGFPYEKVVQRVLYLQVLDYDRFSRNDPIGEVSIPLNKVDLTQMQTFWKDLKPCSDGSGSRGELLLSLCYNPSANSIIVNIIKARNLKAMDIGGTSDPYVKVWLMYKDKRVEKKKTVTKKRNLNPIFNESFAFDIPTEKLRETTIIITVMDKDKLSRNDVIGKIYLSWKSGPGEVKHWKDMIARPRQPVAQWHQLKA
UniProt Q8JZP2: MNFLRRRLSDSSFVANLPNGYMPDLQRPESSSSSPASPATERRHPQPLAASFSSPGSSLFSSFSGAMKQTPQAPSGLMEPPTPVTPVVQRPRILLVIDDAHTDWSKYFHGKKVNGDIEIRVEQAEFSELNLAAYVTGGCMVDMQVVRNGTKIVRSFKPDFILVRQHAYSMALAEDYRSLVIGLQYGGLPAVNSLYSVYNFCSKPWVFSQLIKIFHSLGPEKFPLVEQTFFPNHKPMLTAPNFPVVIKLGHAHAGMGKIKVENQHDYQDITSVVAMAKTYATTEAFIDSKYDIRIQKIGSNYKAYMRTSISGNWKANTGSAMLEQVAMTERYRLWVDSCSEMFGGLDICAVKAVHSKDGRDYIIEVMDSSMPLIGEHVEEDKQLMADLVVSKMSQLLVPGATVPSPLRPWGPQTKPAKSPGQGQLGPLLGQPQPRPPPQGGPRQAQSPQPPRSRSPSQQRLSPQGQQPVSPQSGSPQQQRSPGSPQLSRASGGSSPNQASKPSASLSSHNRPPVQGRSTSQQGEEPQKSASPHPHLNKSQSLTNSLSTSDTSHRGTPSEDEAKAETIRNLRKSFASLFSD
UniProt Q9EQZ7: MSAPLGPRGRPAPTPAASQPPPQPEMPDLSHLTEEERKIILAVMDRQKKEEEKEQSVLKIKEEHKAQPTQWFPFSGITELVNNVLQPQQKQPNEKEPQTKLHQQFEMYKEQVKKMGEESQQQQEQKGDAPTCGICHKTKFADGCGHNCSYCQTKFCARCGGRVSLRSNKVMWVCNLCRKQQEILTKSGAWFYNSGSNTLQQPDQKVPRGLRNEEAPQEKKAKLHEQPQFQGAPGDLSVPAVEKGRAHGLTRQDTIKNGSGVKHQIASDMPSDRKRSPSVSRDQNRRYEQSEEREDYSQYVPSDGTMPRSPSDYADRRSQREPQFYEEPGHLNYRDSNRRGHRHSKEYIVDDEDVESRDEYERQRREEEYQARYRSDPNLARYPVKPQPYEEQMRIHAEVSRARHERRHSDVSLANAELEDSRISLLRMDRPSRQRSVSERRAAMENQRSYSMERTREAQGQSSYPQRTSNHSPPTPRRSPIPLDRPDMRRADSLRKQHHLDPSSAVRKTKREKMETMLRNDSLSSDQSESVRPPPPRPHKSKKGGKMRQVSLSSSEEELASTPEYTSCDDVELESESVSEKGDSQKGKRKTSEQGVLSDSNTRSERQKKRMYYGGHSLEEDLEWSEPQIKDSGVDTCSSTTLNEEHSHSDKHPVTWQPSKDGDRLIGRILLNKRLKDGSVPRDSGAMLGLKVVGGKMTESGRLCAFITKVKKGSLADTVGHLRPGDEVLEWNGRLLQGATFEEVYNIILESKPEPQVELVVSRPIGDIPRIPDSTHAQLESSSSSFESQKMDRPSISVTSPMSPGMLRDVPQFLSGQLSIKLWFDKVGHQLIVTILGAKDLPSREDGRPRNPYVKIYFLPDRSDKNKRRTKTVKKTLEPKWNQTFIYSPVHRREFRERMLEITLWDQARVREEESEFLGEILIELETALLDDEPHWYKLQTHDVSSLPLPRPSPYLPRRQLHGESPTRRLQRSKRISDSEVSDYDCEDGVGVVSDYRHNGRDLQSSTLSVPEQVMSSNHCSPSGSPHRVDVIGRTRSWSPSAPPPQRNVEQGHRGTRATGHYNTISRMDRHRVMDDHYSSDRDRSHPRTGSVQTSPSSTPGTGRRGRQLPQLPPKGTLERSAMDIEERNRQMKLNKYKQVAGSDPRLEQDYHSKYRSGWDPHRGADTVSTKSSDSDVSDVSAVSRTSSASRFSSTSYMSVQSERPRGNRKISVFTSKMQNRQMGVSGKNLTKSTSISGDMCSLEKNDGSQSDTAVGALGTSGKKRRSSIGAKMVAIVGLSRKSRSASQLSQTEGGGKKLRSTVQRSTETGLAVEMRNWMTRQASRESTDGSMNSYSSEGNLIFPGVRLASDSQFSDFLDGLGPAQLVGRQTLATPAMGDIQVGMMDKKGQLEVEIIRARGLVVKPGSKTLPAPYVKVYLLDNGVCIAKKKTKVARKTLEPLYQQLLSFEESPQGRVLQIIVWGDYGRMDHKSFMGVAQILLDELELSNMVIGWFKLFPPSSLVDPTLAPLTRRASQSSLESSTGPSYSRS
UniProt Q6PFX7: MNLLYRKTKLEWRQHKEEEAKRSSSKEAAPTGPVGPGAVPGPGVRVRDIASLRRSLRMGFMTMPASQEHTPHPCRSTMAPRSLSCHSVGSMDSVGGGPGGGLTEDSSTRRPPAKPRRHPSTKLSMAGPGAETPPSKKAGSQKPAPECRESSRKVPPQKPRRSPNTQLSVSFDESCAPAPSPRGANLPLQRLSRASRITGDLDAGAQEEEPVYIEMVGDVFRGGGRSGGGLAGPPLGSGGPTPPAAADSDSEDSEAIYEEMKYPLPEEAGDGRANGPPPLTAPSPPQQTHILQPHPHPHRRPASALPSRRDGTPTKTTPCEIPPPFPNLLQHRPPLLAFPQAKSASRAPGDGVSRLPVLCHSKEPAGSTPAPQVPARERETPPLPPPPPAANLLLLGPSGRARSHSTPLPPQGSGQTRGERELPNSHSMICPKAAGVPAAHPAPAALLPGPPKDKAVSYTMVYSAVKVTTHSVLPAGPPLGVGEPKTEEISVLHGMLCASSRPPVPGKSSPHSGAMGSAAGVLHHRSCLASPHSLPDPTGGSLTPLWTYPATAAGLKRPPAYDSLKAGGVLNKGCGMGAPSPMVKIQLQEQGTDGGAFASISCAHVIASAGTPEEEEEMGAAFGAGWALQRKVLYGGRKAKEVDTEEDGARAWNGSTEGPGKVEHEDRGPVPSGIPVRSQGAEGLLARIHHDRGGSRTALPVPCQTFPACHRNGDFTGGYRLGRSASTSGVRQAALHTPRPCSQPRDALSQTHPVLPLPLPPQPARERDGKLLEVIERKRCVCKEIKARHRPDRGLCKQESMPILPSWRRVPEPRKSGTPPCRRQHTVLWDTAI
UniProt P27546: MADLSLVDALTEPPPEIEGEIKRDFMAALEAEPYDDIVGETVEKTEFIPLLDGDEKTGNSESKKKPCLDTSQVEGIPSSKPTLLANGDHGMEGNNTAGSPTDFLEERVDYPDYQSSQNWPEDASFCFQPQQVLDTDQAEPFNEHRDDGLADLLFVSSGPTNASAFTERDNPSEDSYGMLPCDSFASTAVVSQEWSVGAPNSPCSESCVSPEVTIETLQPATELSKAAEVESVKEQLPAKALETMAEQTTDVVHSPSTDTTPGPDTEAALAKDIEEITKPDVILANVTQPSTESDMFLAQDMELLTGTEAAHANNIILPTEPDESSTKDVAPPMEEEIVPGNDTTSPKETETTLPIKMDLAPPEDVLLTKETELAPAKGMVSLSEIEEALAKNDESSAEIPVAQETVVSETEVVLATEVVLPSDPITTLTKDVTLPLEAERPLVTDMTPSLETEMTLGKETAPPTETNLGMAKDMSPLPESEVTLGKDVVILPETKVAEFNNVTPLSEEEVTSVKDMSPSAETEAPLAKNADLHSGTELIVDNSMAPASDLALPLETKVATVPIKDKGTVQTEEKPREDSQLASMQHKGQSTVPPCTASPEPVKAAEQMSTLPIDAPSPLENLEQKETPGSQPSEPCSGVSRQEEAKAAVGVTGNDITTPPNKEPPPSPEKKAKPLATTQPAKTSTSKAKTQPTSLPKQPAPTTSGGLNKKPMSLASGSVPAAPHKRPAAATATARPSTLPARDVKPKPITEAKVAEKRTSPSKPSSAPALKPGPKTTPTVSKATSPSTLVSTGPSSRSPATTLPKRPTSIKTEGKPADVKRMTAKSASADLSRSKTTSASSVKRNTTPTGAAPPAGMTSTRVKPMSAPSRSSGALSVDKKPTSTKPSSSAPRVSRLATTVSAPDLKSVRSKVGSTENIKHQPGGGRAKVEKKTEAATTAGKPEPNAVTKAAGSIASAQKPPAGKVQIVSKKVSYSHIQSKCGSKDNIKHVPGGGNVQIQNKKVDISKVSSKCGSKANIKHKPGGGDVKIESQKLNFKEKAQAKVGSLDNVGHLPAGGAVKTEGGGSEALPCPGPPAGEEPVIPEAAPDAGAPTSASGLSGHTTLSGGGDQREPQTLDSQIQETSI
UniProt Q8CH77: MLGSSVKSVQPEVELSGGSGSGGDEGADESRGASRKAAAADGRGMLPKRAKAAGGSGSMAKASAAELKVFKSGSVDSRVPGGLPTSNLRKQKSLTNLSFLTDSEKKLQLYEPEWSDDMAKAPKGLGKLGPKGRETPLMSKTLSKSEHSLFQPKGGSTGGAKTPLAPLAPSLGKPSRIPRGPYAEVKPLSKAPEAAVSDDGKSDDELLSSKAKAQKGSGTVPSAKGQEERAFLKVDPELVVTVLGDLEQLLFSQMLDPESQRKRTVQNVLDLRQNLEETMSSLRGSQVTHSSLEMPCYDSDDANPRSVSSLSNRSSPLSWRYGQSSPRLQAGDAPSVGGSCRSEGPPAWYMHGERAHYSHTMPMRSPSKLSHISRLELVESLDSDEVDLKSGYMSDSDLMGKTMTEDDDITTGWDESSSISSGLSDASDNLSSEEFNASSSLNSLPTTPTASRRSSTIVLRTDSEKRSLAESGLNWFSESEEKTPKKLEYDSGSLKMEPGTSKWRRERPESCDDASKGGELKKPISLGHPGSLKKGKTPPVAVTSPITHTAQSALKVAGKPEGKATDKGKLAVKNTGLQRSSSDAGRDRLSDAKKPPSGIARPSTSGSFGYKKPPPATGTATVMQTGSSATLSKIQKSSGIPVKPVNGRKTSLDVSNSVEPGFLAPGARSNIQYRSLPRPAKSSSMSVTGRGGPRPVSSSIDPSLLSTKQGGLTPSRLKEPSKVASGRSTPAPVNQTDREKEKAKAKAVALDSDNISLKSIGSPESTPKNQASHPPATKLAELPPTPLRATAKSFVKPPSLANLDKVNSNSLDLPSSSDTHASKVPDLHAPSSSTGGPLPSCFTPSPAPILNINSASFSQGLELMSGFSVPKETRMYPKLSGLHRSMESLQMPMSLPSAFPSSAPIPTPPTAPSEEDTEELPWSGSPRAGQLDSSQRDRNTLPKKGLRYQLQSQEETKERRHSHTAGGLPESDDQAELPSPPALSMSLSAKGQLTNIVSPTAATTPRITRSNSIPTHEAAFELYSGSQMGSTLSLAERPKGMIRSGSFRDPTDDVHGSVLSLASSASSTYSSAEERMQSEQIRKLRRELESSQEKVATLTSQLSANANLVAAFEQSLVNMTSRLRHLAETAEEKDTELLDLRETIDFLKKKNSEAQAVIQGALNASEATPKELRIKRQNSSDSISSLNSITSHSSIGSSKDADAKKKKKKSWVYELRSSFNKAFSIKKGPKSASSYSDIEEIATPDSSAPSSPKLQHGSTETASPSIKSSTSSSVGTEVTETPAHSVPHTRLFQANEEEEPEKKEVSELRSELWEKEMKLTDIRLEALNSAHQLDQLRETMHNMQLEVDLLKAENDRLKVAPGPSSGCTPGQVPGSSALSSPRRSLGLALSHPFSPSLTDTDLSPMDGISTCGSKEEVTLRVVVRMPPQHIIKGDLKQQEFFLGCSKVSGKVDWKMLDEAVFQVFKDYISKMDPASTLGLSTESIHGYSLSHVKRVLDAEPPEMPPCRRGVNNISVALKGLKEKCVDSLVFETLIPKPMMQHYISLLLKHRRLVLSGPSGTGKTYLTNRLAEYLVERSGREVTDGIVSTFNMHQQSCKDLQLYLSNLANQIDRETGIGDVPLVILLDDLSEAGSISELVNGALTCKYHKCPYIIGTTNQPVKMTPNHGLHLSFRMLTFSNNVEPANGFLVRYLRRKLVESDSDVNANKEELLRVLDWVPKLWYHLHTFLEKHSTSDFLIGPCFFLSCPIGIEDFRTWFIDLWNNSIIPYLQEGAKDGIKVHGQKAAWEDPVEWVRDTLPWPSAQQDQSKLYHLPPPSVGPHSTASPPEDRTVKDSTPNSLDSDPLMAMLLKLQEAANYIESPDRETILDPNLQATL

Biological target: GST-14-3-3ζ (UniProt P63104)
Test: affinity purification with mass spectrometry

| Substance | binding |
| --- | --- |
| Rab11fip2 (from UniProt G3XA57 1-512) | binds |
| Syn1 (from UniProt O88935 1-706) | binds |
| Syt7 (from UniProt Q9R0N7 1-403) | binds |
| Kif21b (from UniProt Q9QXL1 1-1668) | binds |
| Agap2 (from UniProt Q3UHD9 1-1186) | binds |
| Lrrc7 (from UniProt Q80TE7 1-1490) | binds |
| Mark1 (from UniProt Q8VHJ5 1-795) | binds |
| Kif1a (from UniProt P33173 1-1695) | binds |
| Klc4 (from UniProt Q9DBS5 1-619) | binds |
| Klc3 (from UniProt Q91W40 1-508) | binds |
| Mink1 (from UniProt Q9JM52 1-1308) | binds |
| Cdk17 (from UniProt Q8K0D0 1-523) | binds |
| Als2 (from UniProt Q920R0 1-1651) | binds |
| Mark3 (from UniProt Q03141 1-753) | binds |
| Aak1 (from UniProt Q3UHJ0 1-959) | binds |
| Nf1 (from UniProt Q04690 1-2841) | binds |
| Hcn4 (from UniProt O70507 1-1201) | binds |
| Syn3 (from UniProt Q8JZP2 1-579) | binds |
| Srgap2 (from UniProt Q91Z67 1-1071) | binds |
| Syngap1 (from UniProt F6SEU4 1-1340) | binds |

The remaining lines, values ahead:

| binding | Substance |
| --- | --- |
| binds | Mast3 (from UniProt Q3U214 1-1321) |
| binds | Rims2 (from UniProt Q9EQZ7 1-1530) |
| binds | Nyap1 (from UniProt Q6PFX7 1-833) |
| binds | Cdk14 (from UniProt O35495 1-469) |
| binds | Abl2 (from UniProt Q4JIM5 1-1182) |
| binds | Cacna1b (from UniProt O55017 1-2327) |
| binds | Abl1 (from UniProt P00520 1-1123) |
| binds | Map4 (from UniProt P27546 1-1125) |
| binds | Tiam1 (from UniProt Q60610 1-1591) |
| binds | Kcnh7 (from UniProt Q9ER47 1-1195) |
| binds | Iqsec1 (from UniProt Q8R0S2 1-961) |
| binds | Tsc2 (from UniProt Q61037 1-1814) |
| binds | Cacna1e (from UniProt Q61290 1-2272) |
| binds | Pclo (from UniProt Q9QYX7 1-5068) |
| binds | Cdk16 (from UniProt Q04735 1-496) |
| binds | Bsn (from UniProt O88737 1-3942) |
| binds | Kcnq2 (from UniProt Q9Z351 1-759) |
| binds | Klc2 (from UniProt O88448 1-599) |
| binds | Nav1 (from UniProt Q8CH77 1-1875) |
| binds | Map2 (from UniProt P20357 1-1828) |
| binds | Tiam2 (from UniProt Q6ZPF3 1-1715) |

No constants are given. Whether binding was seen depends on the method and setting. In cells and extracts the contact can be indirect. A yes stands for co-enrichment or nearness to the bait. Other partners may have been found.
